Experimental findings from the supplement of paper PMC8007513 are described below.

The other results are listed elsewhere or left out. Many values rest on one well or one pass, so single values are uncertain.

This experiment relates to Saccharomyces cerevisiae BY4743. As to the kind of experiment: growth (OD600) relative to untreated control; higher = less growth inhibition. Particulars: compound concentration: 133 uM; 20 h. The method, then: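 NMCCC compounds (133 uM, no IPBC) tested alone against Saccharomyces cerevisiae BY4743 in YPD, 96-well plates, starting OD600 ~0.1. Growth was read as OD600 at 20 h and expressed as % of the untreated control. Single pass.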
As for `CCc1nnc(NC(=O)CC2(CC(=O)N3CCOCC3)CCCC2)s1`, the growth came out at 104%.

As to `Cc1cc2c(N)c(C(N)=O)sc2nc1-c1ccc(F)cc1`, the growth was 105%.

Take `CCCCN1\C(=N/[S](=O)(=O)C2=CC=CC=C12)SCC(=O)C3=CC=CC=C3`: the growth is 91.9%.

As for `CCN(CC)CCNC(=O)c1nn(C)c2c1CSc1ccccc1-2`, the growth stood at 103%.

As to `CCOC(=O)N1CCC(NC(=O)c2cc3cc(Cl)ccc3[nH]2)CC1`, the growth was found to be 85.4%.

Take `COC(=O)c1cc(S(=O)(=O)Nc2cc(C)cc(C)c2)cn1C`: the growth worked out at 105%.

`CCc1ccc(NC(=O)CN2C(=O)CSc3ccc(S(=O)(=O)N(C)C)cc32)cc1` came in with a growth of 111%.

Consider `Cn1cnc(S(=O)(=O)N2CC(OCc3ccc(Cl)cc3)C2)c1`, for which the growth was 87.3%.

In the case of `NC(=O)c1cc(Cl)ccc1OCc1nc(-c2ccsc2)no1`, the growth turned out to be 93.7%.

In turn, `CCC(C)(C)C1CCC(NC(=O)c2ccc(N3CCOCC3)nc2)CC1` (stereo not given) came in with a growth of 111%.

On to `CCN(CC)S(=O)(=O)c1cc(C(=O)NCc2cn3cc(Cl)ccc3n2)ccc1Cl`, for which the growth worked out at 104%.

`CCSc1ccccc1C(=O)Nc1ccc(S(=O)(=O)NCC(F)(F)F)cc1` yielded a growth of 95.4%.

The compound `CC1CCCCC1NC(=O)CCNS(=O)(=O)c1ccc2nc(O)ccc2c1` (stereo not given) had a growth of 106%.

The compound `CCN1\C=C(\C#N)C(=O)N(CC(=O)NC2=CC=C(C)C=C2Cl)C1=O` registered a growth of 91.1%.

`CCOC(=O)N1CCN(C(=O)c2ccc(S(=O)(=O)N3CCCC(C)C3)cc2)CC1` (stereo not given) displayed a growth of 99.2%.

Compound `COC(=O)c1ccc(C(=O)Nc2ccccc2C(=O)NCc2ccccc2)s1` showed a growth of 94.3%.

Compound `CC(C)CCN(Cc1ccco1)S(=O)(=O)c1ccc2c(c1)C(C)(C)C(=O)N2C` showed a growth of 94.9%.

In turn, `Cc1ccc(OCC(=O)NCCc2ccc(F)cc2)c2c1C(C)CC2=O` (stereo not given) came in with a growth of 73.2%.

In turn, `CCOC(=O)N1CCN(c2ncc3c(n2)CCCC3=O)CC1` showed a growth of 114%.

Compound `CC(C)C1C(=O)Nc2ccc(S(=O)(=O)N3CCCCCC3)cc21` (stereo not given) returned a growth of 109%.

Turning to `Cc1c(C(=O)Nc2ccc(C(=O)O)cc2)oc2c1C(=O)CC(C)(C)C2`, the growth amounted to 85.7%.

In the case of `CCOC(=O)\C1=C(/COC(=O)C2=CC=CC=C2C(=O)C3=CC=CS3)NC(=O)NC1`, the growth was found to be 109%.

In turn, `CCOC(=O)Cn1c(-c2cnn(CC)c2)nc2ccccc21` had a growth of 104%.

Compound `Oc1nc2ccccc2nc1SCc1ccon1` had a growth of 97.9%.

Compound `COc1ccc(N(CCC(N)=O)CC(=O)NC(C)c2ccc3c(c2)OCO3)cc1` (stereo not given) displayed a growth of 107%.

As to `CCN\1C(=O)NC(=O)\C(=C1N)SC2=NC3=CC=CC=C3S2`, the growth is 112%.

In the case of `COc1ccccc1NC(=O)CN(C)S(=O)(=O)c1ccc2c(c1)n(C)c(=O)c(=O)n2C`, the growth was 108%.

The compound `CC(C)C\C1=N\N(C(=O)C2=CC=CO2)C(O)(C1)C(F)(F)F` (stereo not given) came in with a growth of 98.8%.

`CCCCN(C(=O)c1noc2c1CC(C)CC2)C1CCN(C(C)=O)CC1` (stereo not given): the growth amounted to 106%.

Compound `O=C(Nc1nccs1)c1cccnc1` gave a growth of 100%.

Turning to `Cc1[nH]c2ccc(C(=O)N(C)Cc3ccc(Br)s3)cc2c1C`, the growth is 99.6%.

Consider `COC(=O)c1c(C)[nH]c(C(=O)Cn2nnc(-c3ccc(C(C)C)cc3)n2)c1C`, for which the growth came out at 112%.

`CSc1nncc(-c2ccc(Br)cc2)n1` came in with a growth of 81.3%.

The compound `COc1cc(C(=O)OCC(=O)NC2(C#N)CCCC2)cc2c1OCCO2` showed a growth of 105%.

On to `Cc1ccccc1N(C)C(=O)c1cccc2c1SCCC2=O`, for which the growth came to 103%.

In turn, `CCOC(=O)CNC(=O)c1sc2nc(C)cc(C)c2c1NC(=O)Cc1ccccc1` gave a growth of 96%.

The compound `CCOC(=O)c1c(NC(=O)c2ccccc2)oc2cccnc12` registered a growth of 76.4%.

The compound `CCC(CC)n1nc(O)c2c(C)cc(C)nc21` displayed a growth of 108%.

Compound `CS(=O)(=O)Nc1nc2ccc(NC(=O)COc3ccccc3)cc2s1` yielded a growth of 87.5%.

Regarding `N#Cc1ccc(CCC(=O)OCc2nnnn2-c2ccccc2)cc1`, the growth worked out at 90.5%.
